For at least one compound, name, drawing or mass did not settle the structure.
What was measured:
[1] = tested on: monkey eyes; assay: Eye irritancy scoring in monkeys (criteria based on Draize test); format: in vivo, cynomolgus monkeys; set-up: key to Eye irritancy (Score) Conjunctivae Discharge: 0: No discharge; 1: Any amount different from normal (does not include small amount observed in inner canthus of normal animals); 2: Discharge with moistening of the lids and hairs just adjacent to the lids; 3: Discharge with moistening of the lids and considerable area around the eye; key to Eye irritancy (Score) Cornea Opacity: 0: No opacity; 1: Scattered or diffuse area-details of iris clearly visible; 2: Easily discernible translucent areas, details of iris slightly obscured; 3: Opalescent areas, no details of iris visible, size of pupil barely discernible; 4: Opaque, iris invisible; key to Eye irritancy (Score) Iris Values / Eye irritancy (Score) Conjunctivae Redness: 0: Normal; 1: Folds above normal, congestion, swelling, circumcorneal injection (any one or all of these or combination of any thereof); 2: Hemorrhage; gross destruction (any one or both of these); conditions: 15 μg/eye
Excerpt: (§1) Nine male cynomolgus monkeys (body weights of animals ranged between 3.2 and 5.4 kg) without abnormalities in the anterior segment of the eye were used.
(§2) The left eye received an equal volume of the vehicle.
Eye irritancy was scored according to the criteria presented in Table 4 at the same time points as IOP measurements. These criteria are based on those of Draize test.

[2] = tested on: monkey eyes; assay: Effects on IOP in monkey eyes (applanation pneumatonometer); format: in vivo, cynomolgus monkeys; conditions: right eye, 15 μg/eye, Mean ± SE
Procedure: as §1, §2
Intraocular pressure (IOP) measurements were conducted by means of an applanation pneumatonometer (Model 30 Classic™, Mentor O & O, Inc., USA) immediately before the administration (0-hour), and at 2, 4, 8, 12, 24, 28, and 32 hours after the administration.

## CC(C)OC(=O)CCC/C=C\C[C@@H]1[C@@H](CCC(=O)CCc2ccccc2)[C@H](O)C[C@@H]1O [13,14-dihydro-15-keto-17-phenyl-18,19,20-trinor-PGF2α isopropyl ester]
[1]; 2 hr after administration
  Eye irritancy (Score) Conjunctivae Discharge: 0
  Eye irritancy (Score) Conjunctivae Redness: 0
  Eye irritancy (Score) Cornea Opacity: 0
  Eye irritancy (Score) Iris Values: 0
[1]; 4 hr after administration
  Eye irritancy (Score) Conjunctivae Discharge: 0
  Eye irritancy (Score) Conjunctivae Redness: 0
  Eye irritancy (Score) Cornea Opacity: 0
  Eye irritancy (Score) Iris Values: 0
[1]; 8 hr after administration
  Eye irritancy (Score) Conjunctivae Discharge: 0
  Eye irritancy (Score) Conjunctivae Redness: 0
  Eye irritancy (Score) Cornea Opacity: 0
  Eye irritancy (Score) Iris Values: 0
[1]; 12 hr after administration
  Eye irritancy (Score) Conjunctivae Discharge: 0
  Eye irritancy (Score) Conjunctivae Redness: 0
  Eye irritancy (Score) Cornea Opacity: 0
  Eye irritancy (Score) Iris Values: 0
[1]; 24 hr after administration
  Eye irritancy (Score) Conjunctivae Discharge: 0
  Eye irritancy (Score) Conjunctivae Redness: 0
  Eye irritancy (Score) Cornea Opacity: 0
  Eye irritancy (Score) Iris Values: 0
[1]; 28 hr after administration
  Eye irritancy (Score) Conjunctivae Discharge: 0
  Eye irritancy (Score) Conjunctivae Redness: 0
  Eye irritancy (Score) Cornea Opacity: 0
  Eye irritancy (Score) Iris Values: 0
[1]; 32 hr after administration
  Eye irritancy (Score) Conjunctivae Discharge: 0
  Eye irritancy (Score) Conjunctivae Redness: 0
  Eye irritancy (Score) Cornea Opacity: 0
  Eye irritancy (Score) Iris Values: 0
[1]; Before administration
  Eye irritancy (Score) Conjunctivae Discharge: 0
  Eye irritancy (Score) Conjunctivae Redness: 0
  Eye irritancy (Score) Cornea Opacity: 0
  Eye irritancy (Score) Iris Values: 0
[2]; 2 hr after administration
  IOP: 17.7 ± 0.5 mmHg
[2]; 4 hr after administration
  IOP: 7.0 ± 0.5 mmHg
[2]; 8 hr after administration
  IOP: 16.6 ± 0.6 mmHg
[2]; 12 hr after administration
  IOP: 14.4 ± 0.8 mmHg
[2]; 24 hr after administration
  IOP: 16.6 ± 0.6 mmHg
[2]; 28 hr after administration
  IOP: 16.7 ± 0.5 mmHg
[2]; 32 hr after administration
  IOP: 17.2 ± 0.4 mmHg

Source: patent US20040254247A1, “Method and composition for treatnment of ocular hypertension and glaucoma” (priority 2001, published 2004)
